Values from PubChem BioAssay AID493246 (Drosophila RNAi Screening Center, 2011).
The screen tested about 21,000 reagents; below is an unselected part of those with a known target gene and a result. In the full data, 429 (2%) got an active call. 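Values are raw and not normalised between plates; calls rest on per-plate z-scores that were not deposited.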 Reagents against one gene are numbered here. The record does not give: the amount of reagent, the time to read-out.

Assay: 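Genome-wide search for dsRNAs that reduce cell number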 (primary screen)
System: Drosophila Kc and S2R+ cells
Reagents: long dsRNA against Drosophila genes
Measured: 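Cell number per well after knock-down, printed as raw plate values; calls were based on per-plate z-scores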
Direction: Kc cell number and S2R+ cell number: higher = more cells remaining
Call rule: 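Counted as a hit if cell number falls by a z-score of at least 3 within its plate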

gene knocked down | reagent | Kc cell number, rep 1 | Kc cell number, rep 2 | S2R+ cell number, rep 1 | S2R+ cell number, rep 2 | outcome
RpS26 | 1 | 9.81e5 | 1.02e6 | 8.14e5 | 9.96e5 | active
Cyp4c3 | 1 | 5.17e5 | – | 7.70e5 | – | inactive
CG7565 | 1 | 1.57e6 | 1.62e6 | 1.44e6 | 1.17e6 | inactive
apt | 1 | 1.28e6 | 1.48e6 | 7.28e5 | 7.41e5 | inactive
CG11373 | 1 | 1.38e6 | 1.38e6 | 1.32e6 | 1.42e6 | inactive
Rh3 | 1 | 1.64e6 | 1.73e6 | 1.20e6 | 1.28e6 | inactive
CG12209 | 1 | 1.51e6 | 1.52e6 | 1.25e6 | 1.29e6 | inactive
Btnd | 1 | 1.48e6 | 1.49e6 | 1.12e6 | 1.27e6 | inactive
CG13723 | 1 | 1.68e6 | 1.62e6 | 1.35e6 | 1.52e6 | inactive
Akh | 1 | 1.61e6 | 1.53e6 | 1.07e6 | 1.31e6 | inactive
grim | 1 | 1.34e6 | 1.36e6 | 8.90e5 | 1.03e6 | inactive
dod | 1 | 1.56e6 | 1.51e6 | 1.04e6 | 1.17e6 | inactive
CG34288 | 1 | 1.76e6 | 1.73e6 | 1.17e6 | 1.17e6 | inactive
Tim17b2 | 1 | 1.46e6 | 1.53e6 | 1.20e6 | 1.37e6 | inactive
CG31380 | 1 | 1.50e6 | 1.47e6 | 9.93e5 | 1.07e6 | inactive
CycY | 1 | 1.28e6 | 1.32e6 | 1.09e6 | 1.18e6 | inactive
Syn1 | 1 | 1.30e6 | 1.32e6 | 1.32e6 | 1.40e6 | inactive
Syn1 | 2 | 1.28e6 | 1.26e6 | 1.28e6 | 1.35e6 | inactive
stau | 1 | 1.33e6 | 1.38e6 | 1.16e6 | 1.25e6 | inactive
Rab9Fb | 1 | 1.63e6 | 1.54e6 | 1.10e6 | 1.17e6 | inactive
CG34330 | 1 | 1.57e6 | 1.58e6 | 1.13e6 | 1.23e6 | inactive
Lim3 | 1 | 1.73e6 | 1.78e6 | 1.26e6 | 3.05e5 | inactive
Lim3 | 2 | 1.30e6 | 1.46e6 | 8.85e5 | 2.90e5 | inactive
side-V | 1 | 1.35e6 | 1.23e6 | 9.12e5 | 1.05e6 | inactive
CG18641 | 1 | 1.79e6 | 1.80e6 | 1.13e6 | 1.20e6 | inactive
DIP-theta | 1 | 1.34e6 | 1.27e6 | 9.67e5 | 1.13e6 | inactive
DIP-theta | 2 | 1.53e6 | 1.54e6 | 1.22e6 | 1.38e6 | inactive
DIP-theta | 3 | 1.51e6 | 1.43e6 | 1.15e6 | 1.30e6 | inactive
cac | 1 | 1.54e6 | 1.48e6 | 1.05e6 | 1.15e6 | inactive
cac | 2 | 5.80e5 | – | 8.33e5 | – | inactive
CG1602 | 1 | 1.81e6 | 1.82e6 | 1.44e6 | 1.53e6 | inactive
Wdr82 | 1 | 1.55e6 | 1.65e6 | 1.12e6 | 1.19e6 | inactive
l(2)34Fd | 1 | 1.25e6 | 1.39e6 | 1.33e6 | 1.32e6 | inactive
l(2)efl | 1 | 1.34e6 | 1.45e6 | 1.16e6 | 1.25e6 | inactive
Rtnl1 | 1 | 1.54e6 | 1.52e6 | 1.04e6 | 1.24e6 | inactive
Rtnl1 | 2 | 1.42e6 | 1.37e6 | 7.05e5 | 8.91e5 | inactive
Rtnl1 | 3 | 1.41e6 | 1.46e6 | 6.80e5 | 8.24e5 | inactive
Srx | 1 | 1.52e6 | 1.46e6 | 1.04e6 | 1.05e6 | inactive
ApepP | 1 | 1.20e6 | 1.34e6 | 1.18e6 | 9.47e5 | inactive
NimC1 | 1 | 1.56e6 | 1.61e6 | 1.25e6 | 1.38e6 | inactive

Targets above whose gene name begins with D or d (4):
gene knocked down | reagent | Kc cell number, rep 1 | Kc cell number, rep 2 | S2R+ cell number, rep 1 | S2R+ cell number, rep 2 | outcome
dod | 1 | 1.56e6 | 1.51e6 | 1.04e6 | 1.17e6 | inactive
DIP-theta | 1 | 1.34e6 | 1.27e6 | 9.67e5 | 1.13e6 | inactive
DIP-theta | 2 | 1.53e6 | 1.54e6 | 1.22e6 | 1.38e6 | inactive
DIP-theta | 3 | 1.51e6 | 1.43e6 | 1.15e6 | 1.30e6 | inactive
